The source of these data is article PMC2949602, “Genome-wide search identifies Ccnd2 as a direct transcriptional target of Elf5 in mouse mammary gland”.

Common to all, as to test: EMSA
On the technique in general: A gel shift assay detects complexes by their altered migration in electrophoresis.

The target in one data set is T1, GST-Elf5 WT (mouse) (UniProt Q8VDK3).
T1 sequence (looked up): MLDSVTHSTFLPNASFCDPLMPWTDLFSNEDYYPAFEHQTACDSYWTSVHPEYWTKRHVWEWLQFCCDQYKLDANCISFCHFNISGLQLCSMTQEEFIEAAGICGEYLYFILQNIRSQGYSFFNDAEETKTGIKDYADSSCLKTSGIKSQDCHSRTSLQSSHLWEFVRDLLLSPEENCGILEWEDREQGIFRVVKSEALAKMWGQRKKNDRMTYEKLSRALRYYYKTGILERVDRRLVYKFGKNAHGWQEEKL
As to conditions: 20 mM HEPES pH 7.9, 75 mM KCl, 2.5 mM MgCl2, 1 mM EDTA, 0.5 mM DTT, 10% glycerol, 1 ug poly(dA-dT), room temperature, 5% nondenaturing PAGE, residues 1-253, label: 32P (Klenow fill-in with dCTP).

Data set [1] has as its target T2, GST-Elf5 MT2 (R219A) (mouse) (UniProt Q8VDK3).
T2 sequence (looked up): T1 sequence (looked up) with R219A
As to conditions: 20 mM HEPES pH 7.9, 75 mM KCl, 2.5 mM MgCl2, 1 mM EDTA, 0.5 mM DTT, 10% glycerol, 1 ug poly(dA-dT), room temperature; 5% nondenaturing PAGE; recombinant …; residues 1-253; label: 32P (Klenow fill-in with dCTP).

The target in data set [2] is T3, GST-Elf5 MT1 (K216A) (mouse) (UniProt Q8VDK3).
T3 sequence (looked up): T1 sequence (looked up) with K216A
As to conditions: 20 mM HEPES pH 7.9, 75 mM KCl, 2.5 mM MgCl2, 1 mM EDTA, 0.5 mM DTT, 10% glycerol, 1 ug poly(dA-dT), room temperature; 5% nondenaturing PAGE; recombinant …; residues 1-253; label: 32P (Klenow fill-in with dCTP).

Where a chain is given by its changes, count along the chain named. For some assays here: A weaker result is weaker than the reference pair of the same experiment. Where a protein sequence is shown, tags need not be part of it. Construct, isoform or probe ends are uncertain for at least one entry. For some assays here: No signal at the amounts used counts as a negative.

For the sequence “GAGCCAGCAGGATGCTTGACATTCCAGCTGCTGG / AGGCCAGCAGCTGGAATGTCAAGCATCCTGCTGG [Cyclin D2 upstream region 2 oligo]”, the binding result in the data set with GST-Elf5 WT (mouse) (recombinant …) was “binds more weakly”.

For “ACGCTAGAGGAGGGGAGGAAAGGGGAGGAGGAA / AGGTTCCTCCTCCCCCTTTCCTCCCCTCCTCTAG [Cyclin D2 promoter oligo]”, the binding result in the data set with GST-Elf5 WT (mouse) (complex supershifted by two anti-Elf5 antibodies, recombinant protein) is “binds”; in data set [1], “no binding”; in data set [2], “no binding”.

Regarding “CAGATTAGAAAGGAAAAGGATTACAGTAGT / GTGACTACTGTAATCCTTTTCCTTTCTAAT [Cyclin D2 upstream region 1 oligo]”, in the data set with GST-Elf5 WT (mouse) (recombinant …), the binding result is reported as “binds more weakly”.
